Test results taken from PubChem BioAssay AID204 (DTP/NCI, 2004).
The list is a part of this screen's results and no random one: it is rich in T/C values a quarter to a half above the control, in often repeated tests (any T/C) and in doses without a T/C. Further doses and runs are listed elsewhere. T/C gives the treated animals as a percentage of the vehicle group. Some entries give survivors of the animals treated and no T/C: the source files T/C as zero there, which appears to mark a toxic dose or a test without result, not a measured value. Some survivor counts are full or nearly so, which does not show that the dose was tolerated: survival well below the control is almost never listed, so the zero probably covers shortened survival too. Survivors were counted at the toxicity check, usually on the fifth day, unless a day is given; later deaths do not show. Schedules are NCI's codes, taken here to give the interval after Q, in days (D) or hours (H), and the number of doses after X. Some entries hold several experiments; their values stand side by side, smallest first. For survival time, the PubChem record calls one and a half times the control and up active, and a quarter to a half above the control has no call in these data; cut-offs in other NCI protocols can differ. Some T/C values are followed by the survivors on the day toxicity was checked, most often the fifth; where none is given, no animal had died by that day.

System: BDF1 mice, P288 methotrexate-resistant leukemia, survival T/C
Experiment: NCI In Vivo Anticancer Drug Screen. Data for tumor model P288 Lymphocytic Leukemia resistant to methotrexate; NSC 740 (intraperitoneal) in B6D2F1 (BDF1) mice
Details: T/C endpoint: median survival time, higher T/C = longer survival
Procedure: The antitumor activity of compounds was measured in mice bearing transplantable tumors. Survival or tumor size were measured and the results are expressed as the measurement made in the treated group (T) divided by the measurement made in the vehicle treated control group (C). The tumor model used in this assay is P288 Lymphocytic Leukemia resistant to methotrexate; NSC 740 (intraperitoneal) in B6D2F1 (BDF1) mice

[1] = dose: 25.0 mg/kg/injection, schedule: Q01DX010 (ip), vehicle: saline
[2] = dose: 40.0 mg/kg/injection, schedule: Q01DX010 (ip), vehicle: saline
[3] = dose: 80.0 mg/kg/injection, schedule: Q01DX010 (ip), vehicle: saline
[4] = dose: 125.0 mg/kg/injection, schedule: Q01DX010 (ip), vehicle: saline
[5] = dose: 18.0 mg/kg/injection, schedule: Q01DX010 (ip), vehicle: saline
[6] = dose: 27.0 mg/kg/injection, schedule: Q01DX010 (ip), vehicle: saline
[7] = dose: 60.0 mg/kg/injection, schedule: Q01DX010 (ip), vehicle: saline
[8] = dose: 20.0 mg/kg/injection, schedule: Q01DX010 (ip), vehicle: saline
[9] = dose: 12.5 mg/kg/injection, schedule: Q01DX010 (ip), vehicle: saline

`CC/C(=C(/CC)c1ccc(O)cc1)c1ccc(O)cc1` was tested, and the survivor count (dose: 25.0 mg/kg/injection, schedule: Q01DX010 (sc), vehicle: steroid suspending solution) was 6 of 10.
`Nc1nc2n[nH]nc2c(=O)[nH]1` was tested, and the T/C (dose: 50.0 mg/kg/injection, schedule: Q01DX010 (ip), vehicle: alkali diluted with saline) was 130 % of control, the T/C (dose: 100.0 mg/kg/injection, schedule: Q01DX010 (ip), vehicle: alkali diluted with saline) was 137 and 140 % of control and the T/C (dose: 200.0 mg/kg/injection, schedule: Q01DX010 (ip), vehicle: alkali diluted with saline) was 125 and 140 % of control [5 of 6 alive]. For the same compound, the T/C (dose: 400.0 mg/kg/injection, schedule: Q01DX010 (ip), vehicle: alkali diluted with saline) was 129 % of control [5 of 6 alive].
`O=C(Nc1ccc(C2=NCCN2)cc1)c1ccc(C(=O)Nc2ccc(C3=NCCN3)cc2)c([N+](=O)[O-])c1` was tested, and the T/C (dose: 6.0 mg/kg/injection, schedule: Q01DX010 (ip), vehicle: saline) was 135 % of control.
In the case of `Nc1nc(N)c2nc(CNc3ccc(C(=O)NC(CCC(=O)O)C(=O)O)cc3)cnc2n1` (stereo unspecified), the survivor count (dose: 0.1 mg/kg/injection, schedule: Q01DX010 (ip), vehicle: other) is reported as 0 of 6.
In the case of `N=[N+]=CC(=O)OCC(N)C(=O)O` (stereo unspecified), the survivor count [1] is reported as 6 of 6 and the survivor count (dose: 50.0 mg/kg/injection, schedule: Q01DX010 (ip), vehicle: saline) is reported as 1 of 6.
In the case of `CCOC(=O)c1[nH]c2ccccc2c1CN(CCCl)CCCl`, the T/C [2] is reported as 126 % of control and the survivor count [3] is reported as 0 of 6.
`c1ccc(CCSc2ncnc3nc[nH]c23)cc1` was tested, and the survivor count (dose: 7.8 mg/kg/injection, schedule: Q01DX010 (ip), vehicle: saline) was 6 of 6, the survivor count (dose: 62.5 mg/kg/injection, schedule: Q01DX010 (ip), vehicle: saline) was 6 of 6 and the survivor count [4] was 6 of 6. For the same compound, the survivor count (dose: 250.0 mg/kg/injection, schedule: Q01DX010 (ip), vehicle: saline) was 6 of 6.
`CCCCn1cnc2c(=S)nc[nH]c21` was tested, and the survivor count (dose: 16.0 mg/kg/injection, schedule: Q01DX010 (ip), vehicle: saline) was 6 of 6, the survivor count (dose: 32.0 mg/kg/injection, schedule: Q01DX010 (ip), vehicle: saline) was 6 of 6 and the survivor count (dose: 64.0 mg/kg/injection, schedule: Q01DX010 (ip), vehicle: saline) was 6 of 6. The survivor count (dose: 128.0 mg/kg/injection, schedule: Q01DX010 (ip), vehicle: saline) was 6 of 6.
For `C[n+]1c2ccccc2nc2c(N)cc(N)cc21`, the T/C (dose: 12.0 mg/kg/injection, schedule: Q01DX010 (ip), vehicle: saline) was 135 % of control [5 of 6 alive], the T/C [5] was 145 % of control and the survivor count [6] was 5 of 6.
For `CN(C)c1ccc(/C=C\c2ccnc3ccccc23)cc1`, the survivor count [5] was 6 of 6, the survivor count [6] was 6 of 6 and the survivor count [2] was 6 of 6. For the same compound, the survivor count [7] was 6 of 6.
For `Nc1ncnc2[nH]ncc12`, the T/C (dose: 1.5 mg/kg/injection, schedule: Q01DX010 (ip), vehicle: saline) was 125 % of control.
In the case of `CO[C@H](C(=O)[C@@H](O)[C@@H](C)O)[C@@H]1Cc2cc3cc(OC4CC(OC5CC(O)C(O)C(C)O5)C(O)C(C)O4)c(C)c(O)c3c(O)c2C(=O)[C@H]1OC1CC(OC2CC(OC3CC(C)(O)C(O)C(C)O3)C(O)C(C)O2)C(O)C(C)O1` (stereo partly specified), the survivor count (dose: 2.0 mg/kg/injection, schedule: Q01DX010 (ip), vehicle: saline) is reported as 9 of 10.
For `CCCCNc1ncnc2c1cnn2C`, the survivor count (dose: 15.6 mg/kg/injection, schedule: Q01DX010 (ip), vehicle: saline) was 6 of 6, the survivor count (dose: 31.3 mg/kg/injection, schedule: Q01DX010 (ip), vehicle: saline) was 6 of 6 and the survivor count [4] was 4 of 6 and 5 of 6.
In the case of `Clc1ncnc2nc[nH]c12`, the survivor count (dose: 7.5 mg/kg/injection, schedule: Q01DX010 (ip), vehicle: saline) is reported as 6 of 6, the survivor count (dose: 15.0 mg/kg/injection, schedule: Q01DX010 (ip), vehicle: saline) is reported as 6 of 6 and the survivor count (dose: 30.0 mg/kg/injection, schedule: Q01DX010 (ip), vehicle: saline) is reported as 6 of 6. For the same compound, the survivor count [7] was 6 of 6.
With `CN(N=O)C(N)=O` the T/C (dose: 5.0 mg/kg/injection, schedule: Q01DX010 (ip), vehicle: saline) was 130 % of control.
With `CC1CCOS(=O)O1` (stereo unspecified) the survivor count [8] was 6 of 6, the survivor count [2] was 6 of 6 and the survivor count [3] was 6 of 6.
For `CS(=O)(=O)OCC(O)C(O)COS(C)(=O)=O` (stereo unspecified), the survivor count (dose: 100.0 mg/kg/injection, schedule: Q01DX010 (ip), vehicle: saline) was 6 of 6.
In the case of `C[C@H]1C(=O)O[C@@H]2CCN3CC=C(COC(=O)[C@](C)(O)[C@@]1(C)O)[C@H]23`, the survivor count [9] is reported as 6 of 6.
`O=C(O)CCCc1ccc(N(CCCl)CCCl)cc1` was tested, and the survivor count [9] was 6 of 6 and the survivor count [1] was 0 of 6 and 5 of 6.
`Cc1cc(N(CCCl)CCCl)ccc1N=Nc1ccccc1C(=O)O` was tested, and the T/C [8] was 131 % of control and the survivor count [2] was 6 of 6.
In the case of `CN(C)CC(=O)c1ccc(O)c(O)c1`, the T/C (dose: 675.0 mg/kg/injection, schedule: Q01DX010 (ip), vehicle: saline) is reported as 130 % of control.
